Reference: patent publication US9745288B2, “Compounds and methods for treating cancer by inhibiting the urokinase receptor” (Indiana University Research and Technology Corporation, priority 2011, dated 2017)

System: MMP-9
Test: Gelatin zymography of MDA-MB-231 conditioned medium
Assay type: cell-based, human

SMILES: Cc1ccc(-n2ncc(C(=O)Nc3ccccc3OCc3ccccc3)c2C2CCNCC2)cc1C
- MMP-9 activity in gelatin zymography: impairment of matrix metalloproteinase (MMP-9) activity; also recorded: increasing inhibition of MMP-9

“Also recorded” adds a separate entry of the source. Not every entry of the source has a single result; some have several. This is not the full list of results. The source may hold further records. The records of an entry differ, and nothing given here explains why; they may come from other doses, times, organisms or constructs than stated.
